Measurements as given in PMC10534228.
These are yes or no findings as the source states them, for the method shown. For some of these results: In cells and extracts the contact can be indirect. Some entries that bind do so weakly or less than the wild type.

Amino acid sequences for entries named in this document (tags omitted).
UniProt Q04207: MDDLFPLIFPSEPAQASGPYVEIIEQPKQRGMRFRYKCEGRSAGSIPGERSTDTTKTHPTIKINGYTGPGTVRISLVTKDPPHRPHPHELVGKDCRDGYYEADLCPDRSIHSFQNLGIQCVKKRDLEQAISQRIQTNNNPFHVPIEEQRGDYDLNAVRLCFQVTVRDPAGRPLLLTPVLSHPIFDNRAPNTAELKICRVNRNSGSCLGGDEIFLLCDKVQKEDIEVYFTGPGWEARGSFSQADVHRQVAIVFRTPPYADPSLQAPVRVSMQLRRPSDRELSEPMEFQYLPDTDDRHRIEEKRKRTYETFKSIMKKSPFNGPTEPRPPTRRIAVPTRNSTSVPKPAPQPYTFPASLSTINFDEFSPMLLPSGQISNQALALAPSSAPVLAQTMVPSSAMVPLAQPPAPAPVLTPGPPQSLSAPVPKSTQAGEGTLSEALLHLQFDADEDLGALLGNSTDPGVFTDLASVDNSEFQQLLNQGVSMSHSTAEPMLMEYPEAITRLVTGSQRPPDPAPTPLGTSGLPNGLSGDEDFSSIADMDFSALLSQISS
UniProt O54943: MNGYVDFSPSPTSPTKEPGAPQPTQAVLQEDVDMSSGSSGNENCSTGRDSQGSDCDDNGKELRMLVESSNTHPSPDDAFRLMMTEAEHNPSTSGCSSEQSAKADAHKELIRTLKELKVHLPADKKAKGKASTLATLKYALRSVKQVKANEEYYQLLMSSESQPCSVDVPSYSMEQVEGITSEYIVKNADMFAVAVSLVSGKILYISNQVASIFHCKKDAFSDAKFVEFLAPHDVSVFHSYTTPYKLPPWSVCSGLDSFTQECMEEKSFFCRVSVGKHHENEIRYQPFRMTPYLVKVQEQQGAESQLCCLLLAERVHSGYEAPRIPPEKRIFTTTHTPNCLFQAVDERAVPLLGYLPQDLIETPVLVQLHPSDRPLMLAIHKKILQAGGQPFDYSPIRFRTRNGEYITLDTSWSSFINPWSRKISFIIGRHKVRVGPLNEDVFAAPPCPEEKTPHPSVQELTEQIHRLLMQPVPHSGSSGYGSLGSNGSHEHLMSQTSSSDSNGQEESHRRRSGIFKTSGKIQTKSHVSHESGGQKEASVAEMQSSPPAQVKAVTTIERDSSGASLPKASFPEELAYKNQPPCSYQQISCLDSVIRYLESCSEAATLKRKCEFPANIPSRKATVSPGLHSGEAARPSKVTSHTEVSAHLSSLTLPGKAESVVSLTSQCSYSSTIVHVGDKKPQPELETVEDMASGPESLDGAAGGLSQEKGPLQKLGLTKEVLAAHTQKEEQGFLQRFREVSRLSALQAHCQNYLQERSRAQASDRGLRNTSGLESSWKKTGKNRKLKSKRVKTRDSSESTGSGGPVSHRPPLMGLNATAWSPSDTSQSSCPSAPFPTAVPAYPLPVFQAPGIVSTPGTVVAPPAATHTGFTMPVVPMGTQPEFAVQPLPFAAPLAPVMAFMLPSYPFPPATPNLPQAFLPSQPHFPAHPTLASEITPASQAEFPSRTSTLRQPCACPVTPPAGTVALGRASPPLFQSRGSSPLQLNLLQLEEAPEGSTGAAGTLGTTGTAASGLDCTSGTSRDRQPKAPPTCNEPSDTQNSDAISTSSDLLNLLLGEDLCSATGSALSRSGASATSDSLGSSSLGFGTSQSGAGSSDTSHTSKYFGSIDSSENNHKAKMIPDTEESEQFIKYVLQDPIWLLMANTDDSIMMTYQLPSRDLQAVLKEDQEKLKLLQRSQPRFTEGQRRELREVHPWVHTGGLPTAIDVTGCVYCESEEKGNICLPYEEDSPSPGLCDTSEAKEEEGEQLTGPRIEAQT

How the values were obtained:
[1] = target: NF-κB p65 (mouse (endogenous in BMDMs and rectal LPLs)) (UniProt Q04207); assay: co-IP; lysates of rectal LPLs of WT and Per2-/- mice; IP with anti-PER2 or anti-p65, immunoblot with anti-PER2 or anti-p65
[2] = target: NF-κB p65 (mouse (endogenous in BMDMs and rectal LPLs)) (UniProt Q04207); assay: ChIP-reChIP; formaldehyde-crosslinked chromatin of BMDMs from WT mice, with or without LPS for 24 h; p65 and PER2 on the Gys1 promoter, read by PCR and qPCR
[3] = target: NF-κB p65 (mouse (endogenous in BMDMs and rectal LPLs)) (UniProt Q04207); assay: co-IP; nuclear (nucleoprotein) extracts of BMDMs from WT mice, with or without LPS stimulation; non-denaturing lysis buffer (20 mM Tris-HCl pH 8.0, 137 mM NaCl, 2 mM EDTA, 1% NP-40); antibody overnight at 4 °C, Protein G-sepharose; Western blot
[4] = target: PER2 (Period2) (mouse (endogenous in BMDMs, rectal LPLs and NIH3T3)) (UniProt O54943); assay: co-IP; lysates of rectal LPLs of WT and Per2-/- mice; IP with anti-PER2 or anti-p65, immunoblot with anti-PER2 or anti-p65

binding [1]	binding [2]	binding [3]	binding [4]	Substance
binds	binds	binds		PER2 (Period2) (from UniProt O54943 1-1257)
			binds	NF-κB p65 (from UniProt Q04207 1-549)
